# The list shows a part of the results.
# Columns and labels:
# Assay in all cases: glycan array binding signal (z-score within array); higher = stronger binding
# Details in all cases: glycan notation: IUPAC condensed, linker removed
# [1] = molecular target: Neu5Ac(a2-6)Gal(b1-4)GlcNAc(b1-2)Man(a1-3)[GlcNAc(b1-4)][Neu5Ac(a2-6)Gal(b1-4)GlcNAc(b1-2)Man(a1-6)]Man(b1-4)GlcNAc(b1-4)GlcNAc
# In short: (§1)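 Glycan array binding is given as a within-array Z-score, which can be read as non-binding when negative. The arrays, 3228 of them, came from the Consortium for Functional Glycomics database and were retained only where the protein sequence was available. Z-scores were averaged across arrays of the same protein sequence at different concentrations or buffers and across linkers.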
# [2] = molecular target: Neu5Ac(a2-6)Gal(b1-4)GlcNAc(b1-2)Man(a1-3)[Man(a1-6)]Man(b1-4)GlcNAc(b1-4)GlcNAc
# In short: as §1
# [3] = molecular target: Neu5Ac(a2-6)Gal(b1-4)GlcNAc(b1-2)Man(a1-3)[Neu5Ac(a2-3)Gal(b1-4)GlcNAc(b1-2)Man(a1-6)]Man(b1-4)GlcNAc(b1-4)GlcNAc
# In short: as §1
# [4] = molecular target: Neu5Ac(a2-6)Gal(b1-4)GlcNAc(b1-2)Man(a1-3)[Neu5Ac(a2-6)Gal(b1-4)GlcNAc(b1-2)Man(a1-6)]Man(b1-4)GlcNAc(b1-4)GlcNAc
# In short: as §1
# [5] = molecular target: Neu5Ac(a2-6)Gal(b1-4)GlcNAc(b1-2)Man(a1-3)[Neu5Ac(a2-6)Gal(b1-4)GlcNAc(b1-2)Man(a1-6)]Man(b1-4)GlcNAc(b1-4)[Fuc(a1-6)]GlcNAc
# In short: as §1
# [6] = molecular target: Neu5Ac(a2-6)Gal(b1-4)GlcNAc(b1-2)Man(a1-6)Man(b1-4)GlcNAc(b1-4)GlcNAc
# In short: as §1
# [7] = molecular target: Neu5Ac(a2-6)Gal(b1-4)GlcNAc(b1-2)Man(a1-6)[Gal(b1-4)GlcNAc(b1-2)Man(a1-3)]Man(b1-4)GlcNAc(b1-4)GlcNAc
# In short: as §1
# [8] = molecular target: Neu5Ac(a2-6)Gal(b1-4)GlcNAc(b1-2)Man(a1-6)[GlcNAc(b1-2)Man(a1-3)]Man(b1-4)GlcNAc(b1-4)GlcNAc
# In short: as §1
# [9] = molecular target: Neu5Ac(a2-6)Gal(b1-4)GlcNAc(b1-2)Man(a1-6)[Man(a1-3)]Man(b1-4)GlcNAc(b1-4)GlcNAc
# In short: as §1
# [10] = molecular target: Neu5Ac(a2-6)Gal(b1-4)GlcNAc(b1-2)[Neu5Ac(a2-6)Gal(b1-4)GlcNAc(b1-4)]Man(a1-3)[GlcNAc(b1-4)][Neu5Ac(a2-6)Gal(b1-4)GlcNAc(b1-2)[Neu5Ac(a2-6)Gal(b1-4)GlcNAc(b1-6)]Man(a1-6)]Man(b1-4)GlcNAc(b1-4)GlcNAc
# In short: as §1
# [11] = molecular target: Neu5Ac(a2-6)Gal(b1-4)GlcNAc(b1-2)[Neu5Ac(a2-6)Gal(b1-4)GlcNAc(b1-4)]Man(a1-3)[GlcNAc(b1-4)][Neu5Ac(a2-6)Gal(b1-4)GlcNAc(b1-4)Man(a1-6)]Man(b1-4)GlcNAc(b1-4)GlcNAc
# In short: as §1
# [12] = molecular target: Neu5Ac(a2-6)Gal(b1-4)GlcNAc(b1-2)[Neu5Ac(a2-6)Gal(b1-4)GlcNAc(b1-6)]Man(a1-6)[Neu5Ac(a2-6)Gal(b1-4)GlcNAc(b1-2)Man(a1-3)][GlcNAc(b1-4)]Man(b1-4)GlcNAc(b1-4)GlcNAc
# In short: as §1
# [13] = molecular target: Neu5Ac(a2-6)Gal(b1-4)GlcNAc(b1-3)Gal(b1-3)GlcNAc
# In short: as §1
# [14] = molecular target: Neu5Ac(a2-6)Gal(b1-4)GlcNAc(b1-3)Gal(b1-4)GlcNAc
# In short: as §1
# [15] = molecular target: Neu5Ac(a2-6)Gal(b1-4)GlcNAc(b1-3)Gal(b1-4)GlcNAc(b1-2)Man(a1-3)[Neu5Ac(a2-6)Gal(b1-4)GlcNAc(b1-3)Gal(b1-4)GlcNAc(b1-2)Man(a1-6)]GalNAc
# In short: as §1
# [16] = molecular target: Neu5Ac(a2-6)Gal(b1-4)GlcNAc(b1-3)Gal(b1-4)GlcNAc(b1-3)Gal(b1-4)GlcNAc
# In short: as §1
# [17] = molecular target: Neu5Ac(a2-6)Gal(b1-4)GlcNAc(b1-3)Gal(b1-4)GlcNAc(b1-3)Gal(b1-4)GlcNAc(b1-2)Man(a1-3)[Neu5Ac(a2-6)Gal(b1-4)GlcNAc(b1-3)Gal(b1-4)GlcNAc(b1-3)Gal(b1-4)GlcNAc(b1-2)Man(a1-6)]GalNAc
# In short: as §1
# [18] = molecular target: Neu5Ac(a2-6)Gal(b1-4)GlcNAc(b1-3)Gal(b1-4)GlcNAc(b1-3)GalNAc
# In short: as §1
# [19] = molecular target: Neu5Ac(a2-6)Gal(b1-4)GlcNAc(b1-3)Gal(b1-4)GlcNAc(b1-3)[Neu5Ac(a2-6)Gal(b1-4)GlcNAc(b1-3)Gal(b1-4)GlcNAc(b1-6)]GalNAc
# In short: as §1
# [20] = molecular target: Neu5Ac(a2-6)Gal(b1-4)GlcNAc(b1-3)Gal(b1-4)GlcNAc(b1-6)[Gal(b1-3)]GalNAc
# In short: as §1
# [21] = molecular target: Neu5Ac(a2-6)Gal(b1-4)GlcNAc(b1-3)Gal(b1-4)[Fuc(a1-3)]GlcNAc(b1-3)Gal(b1-4)[Fuc(a1-3)]GlcNAc
# In short: as §1
# [22] = molecular target: Neu5Ac(a2-6)Gal(b1-4)GlcNAc(b1-3)GalNAc
# In short: as §1
# [23] = molecular target: Neu5Ac(a2-6)Gal(b1-4)GlcNAc(b1-3)[Neu5Ac(a2-6)Gal(b1-4)GlcNAc(b1-6)]GalNAc
# In short: as §1
# [24] = molecular target: Neu5Ac(a2-6)Gal(b1-4)GlcNAc(b1-6)GalNAc
# In short: as §1
# [25] = molecular target: Neu5Ac(a2-6)Gal(b1-4)GlcNAc(b1-6)[Gal(b1-3)GlcNAc(b1-3)]Gal(b1-4)Glc
# In short: as §1
# [26] = molecular target: Neu5Ac(a2-6)Gal(b1-4)GlcNAc(b1-6)[Gal(b1-3)]GalNAc
# In short: as §1
# [27] = molecular target: Neu5Ac(a2-6)Gal(b1-4)GlcNAc6S
# In short: as §1
# Neu5Ac(a2-6)GalNAc = molecular target: Neu5Ac(a2-6)GalNAc
# In short: as §1
# [28] = molecular target: Neu5Ac(a2-6)GalNAc(b1-4)GlcNAc
# In short: as §1
# [29] = molecular target: Neu5Ac(a2-6)GalNAc(b1-4)GlcNAc6S
# In short: as §1
# [30] = molecular target: Neu5Ac(a2-6)GlcNAc(b1-4)GlcNAc
# In short: as §1
binder,measurement,setting,value
"XTP3-B-MRH2 (Homo sapiens), Q96DZ1 (protein) EFLSGSYCFRGGVGWWKYEFCYGKHVHQYHEDKDSGKTSVVVGTWNQEEHIEWAKKNTARAYHLQDDGTQTVRMVSHFYGNGDICDITDKPRQVTVKLKCKESDSPHAVTVYMLEPHSCQYILGVESPVICKILDTA",glycan array binding signal (z-score),[1],-1.13
same,glycan array binding signal (z-score),[2],-0.089
same,glycan array binding signal (z-score),[3],-0.101
same,glycan array binding signal (z-score),[4],-0.079
same,glycan array binding signal (z-score),[5],0.209
same,glycan array binding signal (z-score),[6],1.85
same,glycan array binding signal (z-score),[7],-0.687
same,glycan array binding signal (z-score),[8],-0.312
same,glycan array binding signal (z-score),[9],0.144
same,glycan array binding signal (z-score),[10],0.202
same,glycan array binding signal (z-score),[11],-0.488
same,glycan array binding signal (z-score),[12],0.579
same,glycan array binding signal (z-score),[13],-0.807
same,glycan array binding signal (z-score),[14],0.021
same,glycan array binding signal (z-score),[15],-0.17
same,glycan array binding signal (z-score),[16],-0.857
same,glycan array binding signal (z-score),[17],0.077
same,glycan array binding signal (z-score),[18],-0.693
same,glycan array binding signal (z-score),[19],-0.173
same,glycan array binding signal (z-score),[20],-1.16
same,glycan array binding signal (z-score),[21],-0.622
same,glycan array binding signal (z-score),[22],0.124
same,glycan array binding signal (z-score),[23],-0.205
same,glycan array binding signal (z-score),[24],0.675
same,glycan array binding signal (z-score),[25],0.08
same,glycan array binding signal (z-score),[26],0.541
same,glycan array binding signal (z-score),[27],1.55
same,glycan array binding signal (z-score),Neu5Ac(a2-6)GalNAc,1.2
same,glycan array binding signal (z-score),[28],0.042
same,glycan array binding signal (z-score),[29],-0.187
same,glycan array binding signal (z-score),[30],0.82

# For reference, part of the list above:
binder,measurement,setting,value
"XTP3-B-MRH2 (Homo sapiens), Q96DZ1 (protein) EFLSGSYCFRGGVGWWKYEFCYGKHVHQYHEDKDSGKTSVVVGTWNQEEHIEWAKKNTARAYHLQDDGTQTVRMVSHFYGNGDICDITDKPRQVTVKLKCKESDSPHAVTVYMLEPHSCQYILGVESPVICKILDTA",glycan array binding signal (z-score),[29],-0.187
same,glycan array binding signal (z-score),[30],0.82

# Source: the supplement of paper PMC8728848
